The subject of data set [1] is primary AML samples. The experiment in a line: HLA class I ligandome analysis (W6/32 immunoaffinity purification, LC-MS/MS) of primary AML samples. Details: species or system human. Conditions: AML patients (n=15).
The subject of data set [2] is cancer tissues in comparison to non-cancerous tissues and organs. Nature of the data set: Presentation profile / over-presentation by label-free LC-MS (XPRESIDENT), tumor versus normal tissues, other proliferative diseases. As to conditions: other proliferative diseases / organs (other than AML) that over- or exclusively present the peptide; Table 5. Details: species or system human.

Setting [3] is: HLA class I ligandome, count for the HLA ligand (LiTAP) or, on protein lines, for the source protein (LiTAA).

For “236 (ETIDSRVQEY; listed as Homo sapiens) [compound 236]”, the “Number of positive AMLs” value in data set [1] (setting [3]) is on record as 3. Moreover, the “Proliferative disease and location thereof” value in data set [2] is given as “colon or rectum, ovary, teratoma”.
On to “237 (EVSEQILHM; listed as Homo sapiens) [compound 237]”, for which the “Number of positive AMLs” value in data set [1] (setting [3]) is 3. For the same substance, the “Proliferative disease and location thereof” value in data set [2] was “stomach, metastatic, lymph node, non-Hodgkin's; lymphoma”.
For “238 (GTLSGGILSSGK; listed as Homo sapiens) [compound 238]”, the “Number of positive AMLs” value in data set [1] (setting [3]) was determined as 1. Further, in data set [2], the “Proliferative disease and location thereof” value is on record as “stomach, differentiated subtype adenocarcinoma, uterine, cervix, squamous cell carcinoma”.
In the case of “239 (GVPIMLAY; listed as Homo sapiens) [compound 239]”, in data set [1] (setting [3]), the “Number of positive AMLs” value is 2. Also, in data set [2], the “Proliferative disease and location thereof” value was “brain, glioblastoma, uterine cervix, squamous cell carcinoma”.
For “240 (EEVKEEVKKF; listed as Homo sapiens) [compound 240]”, in data set [1] (HLA ligand (LiTAP)), the “Number of positive AMLs” value is given as 2. In addition, in data set [2], the “Proliferative disease and location thereof” value is listed as “lung, non-small cell lung carcinoma, thymus, thymoma”.
With “241 (KTIAFLLPMF; listed as Homo sapiens) [compound 241]”, in data set [1] (HLA ligand (LiTAP)), the “Number of positive AMLs” value was 1. Besides, the “Proliferative disease and location thereof” value in data set [2] is “lung, non-small cell lung carcinoma, thymus, thymoma”.
For “242 (EVTTNIPKM; listed as Homo sapiens) [compound 242]”, the “Number of positive AMLs” value in data set [1] (HLA ligand (LiTAP)) is listed as 3. In data set [2], the “Proliferative disease and location thereof” value is recorded as “liver, hepatocellular carcinoma, cancer, adenoid; cystic carcinoma”.
Take “243 (IHGDTVQNQL; listed as Homo sapiens) [compound 243]”: in data set [1] (HLA ligand (LiTAP)), the “Number of positive AMLs” value is listed as 2. In data set [2], the “Proliferative disease and location thereof” value is “colon or rectum, adrenal gland, adrenal cortical carcinoma”.
In the case of “244 (RTMVKTLEY; listed as Homo sapiens) [compound 244]”, in data set [1] (HLA ligand (LiTAP)), the “Number of positive AMLs” value came to 1. The “Proliferative disease and location thereof” value in data set [2] was “colon or rectum, adrenal gland, adrenal cortical carcinoma”.
With “245 (ETVRTLNNLY; listed as Homo sapiens) [compound 245]”, the “Number of positive AMLs” value in data set [1] (HLA ligand (LiTAP)) is 3. Besides, the “Proliferative disease and location thereof” value in data set [2] is given as “brain, glioblastoma, omentum, leiomyosarcoma, metastatic”.
Consider “246 (HSIDKVTSR; listed as Homo sapiens) [compound 246]”, for which the “Number of positive AMLs” value in data set [1] (HLA ligand (LiTAP)) is listed as 2. For the same substance, the “Proliferative disease and location thereof” value in data set [2] is “colon or rectum, parathyroid gland, adenoma”.
Turning to “247 (VSNPKSFEY; listed as Homo sapiens) [compound 247]”, in data set [1] (HLA ligand (LiTAP)), the “Number of positive AMLs” value is 1. Moreover, in data set [2], the “Proliferative disease and location thereof” value is “colon or rectum, parathyroid gland, adenoma”.
With “248 (GLGPTFKL; listed as Homo sapiens) [compound 248]”, the “Number of positive AMLs” value in data set [1] (HLA ligand (LiTAP)) came out at 1. For the same substance, in data set [2], the “Proliferative disease and location thereof” value is listed as “lung, non-small cell lung carcinoma, stomach, adenocarcinoma”.
Take “249 (NKGISDIIKV; listed as Homo sapiens) [compound 249]”: in data set [1] (HLA ligand (LiTAP)), the “Number of positive AMLs” value is given as 1. Also, the “Proliferative disease and location thereof” value in data set [2] is reported as “lung, non-small cell lung carcinoma, stomach, adenocarcinoma”.
For “250 (TSTTRPVL; listed as Homo sapiens) [compound 250]”, in data set [1] (HLA ligand (LiTAP)), the “Number of positive AMLs” value was 1. In data set [2], the “Proliferative disease and location thereof” value is listed as “lung, non-small cell lung carcinoma, stomach, adenocarcinoma”.
For “251 (VLGGKAFLEHL; listed as Homo sapiens) [compound 251]”, the “Number of positive AMLs” value in data set [1] (HLA ligand (LiTAP)) was 1. In addition, in data set [2], the “Proliferative disease and location thereof” value is given as “stomach, endometrium, adenocarcinoma”.
On to “252 (YEFERTTSI; listed as Homo sapiens) [compound 252]”, for which, in data set [1] (HLA ligand (LiTAP)), the “Number of positive AMLs” value is listed as 2. Further, the “Proliferative disease and location thereof” value in data set [2] is on record as “stomach, endometrium, adenocarcinoma”.
On to “253 (YLDFTNPKV; listed as Homo sapiens) [compound 253]”, for which the “Number of positive AMLs” value in data set [1] (HLA ligand (LiTAP)) amounted to 3. Besides, the “Proliferative disease and location thereof” value in data set [2] is “liver, hepatocellular carcinoma, uterine cervix, squamous cell carcinoma”.
Take “254 (IPAVARTTTL; listed as Homo sapiens) [compound 254]”: the “Number of positive AMLs” value in data set [1] (HLA ligand (LiTAP)) is on record as 1. Besides, the “Proliferative disease and location thereof” value in data set [2] is given as “pancreas, adenocarcinoma, myometrium, leiomyoma”.
In the case of “255 (KQQLELDSI; listed as Homo sapiens) [compound 255]”, in data set [1] (HLA ligand (LiTAP)), the “Number of positive AMLs” value is 1. Also, in data set [2], the “Proliferative disease and location thereof” value was “pancreas, adenocarcinoma, myometrium, leiomyoma”.
In the case of “256 (KTTDTVSSF; listed as Homo sapiens) [compound 256]”, in data set [1] (HLA ligand (LiTAP)), the “Number of positive AMLs” value was 1. The “Proliferative disease and location thereof” value in data set [2] is “pancreas, adenocarcinoma, myometrium, leiomyoma”.
Turning to “257 (DYLDGVHTVF; listed as Homo sapiens) [compound 257]”, the “Number of positive AMLs” value in data set [1] (HLA ligand (LiTAP)) was determined as 2. Moreover, the “Proliferative disease and location thereof” value in data set [2] is reported as “colon or rectum, fibromatosis”.
“258 (YLDGVHTVF; listed as Homo sapiens) [compound 258]”: the “Number of positive AMLs” value in data set [1] (HLA ligand (LiTAP)) was 1. In addition, in data set [2], the “Proliferative disease and location thereof” value was “colon or rectum, fibromatosis”.
Regarding “259 (TYVSGMLRF; listed as Homo sapiens) [compound 259]”, in data set [1] (HLA ligand (LiTAP)), the “Number of positive AMLs” value is recorded as 1. For the same substance, the “Proliferative disease and location thereof” value in data set [2] is recorded as “brain, glioblastoma, breast, carcinoma”.
On to “260 (DAIDGKQAR; listed as Homo sapiens) [compound 260]”, for which the “Number of positive AMLs” value in data set [1] (HLA ligand (LiTAP)) turned out to be 2. In data set [2], the “Proliferative disease and location thereof” value is recorded as “brain, glioblastoma, liver, focal nodular; hyperplasia”.
On to “261 (DPMAPGVQGSLL; listed as Homo sapiens) [compound 261]”, for which the “Number of positive AMLs” value in data set [1] (HLA ligand (LiTAP)) is 1. In addition, the “Proliferative disease and location thereof” value in data set [2] is on record as “lung, non-small cell lung carcinoma, uterine cervix, squamous cell carcinoma”.
On to “262 (GLDPSQRPK; listed as Homo sapiens) [compound 262]”, for which the “Number of positive AMLs” value in data set [1] (HLA ligand (LiTAP)) is reported as 2. Further, the “Proliferative disease and location thereof” value in data set [2] is reported as “lung, non-small cell lung carcinoma, uterine cervix, squamous cell carcinoma”.
Consider “263 (IEDSRVYEL; listed as Homo sapiens) [compound 263]”, for which, in data set [1] (HLA ligand (LiTAP)), the “Number of positive AMLs” value is listed as 3. The “Proliferative disease and location thereof” value in data set [2] is given as “stomach, metastatic, non-Hodgkin's lymphoma”.
In the case of “264 (YVHSFLSSGY; listed as Homo sapiens) [compound 264]”, the “Number of positive AMLs” value in data set [1] (HLA ligand (LiTAP)) is listed as 3. Also, the “Proliferative disease and location thereof” value in data set [2] was “small Intestine, gastrointestinal stromal tumor”.
For “265 (HEYTTKEVF; listed as Homo sapiens) [compound 265]”, the “Number of positive AMLs” value in data set [1] (HLA ligand (LiTAP)) amounted to 1. The “Proliferative disease and location thereof” value in data set [2] was “liver, hepatocellular carcinoma, cancer, colon, adenocarcinoma”.
With “266 (KLQEQLAQL; listed as Homo sapiens) [compound 266]”, in data set [1] (HLA ligand (LiTAP)), the “Number of positive AMLs” value is listed as 1. Besides, the “Proliferative disease and location thereof” value in data set [2] is on record as “liver, hepatocellular carcinoma, cancer, colon, adenocarcinoma”.
On to “267 (SIAAKILSY; listed as Homo sapiens) [compound 267]”, for which the “Number of positive AMLs” value in data set [1] (HLA ligand (LiTAP)) came to 1. Further, the “Proliferative disease and location thereof” value in data set [2] was “liver, hepatocellular carcinoma, cancer, colon, adenocarcinoma”.
In the case of “268 (KELLAVKL; listed as Homo sapiens) [compound 268]”, in data set [1] (HLA ligand (LiTAP)), the “Number of positive AMLs” value is 1. Also, the “Proliferative disease and location thereof” value in data set [2] is listed as “pancreas, adenocarcinoma, lung, adenocarcinoma”.
With “269 (KLKQTTSALEK; listed as Homo sapiens) [compound 269]”, the “Number of positive AMLs” value in data set [1] (HLA ligand (LiTAP)) worked out at 2. Moreover, the “Proliferative disease and location thereof” value in data set [2] is given as “pancreas, adenocarcinoma, lung, adenocarcinoma”.
Take “270 (EVGPREAGLR; listed as Homo sapiens) [compound 270]”: in data set [1] (HLA ligand (LiTAP)), the “Number of positive AMLs” value is given as 2. Further, the “Proliferative disease and location thereof” value in data set [2] was “kidney, clear cell renal cell carcinoma, kidney, transitional cell carcinoma”.
Consider “271 (SEAQEGLQKF; listed as Homo sapiens) [compound 271]”, for which the “Number of positive AMLs” value in data set [1] (HLA ligand (LiTAP)) is on record as 1. In data set [2], the “Proliferative disease and location thereof” value is on record as “kidney, clear cell renal cell carcinoma, kidney, transitional cell carcinoma”.
Turning to “272 (DEAVLFVQV; listed as Homo sapiens) [compound 272]”, in data set [1] (HLA ligand (LiTAP)), the “Number of positive AMLs” value worked out at 3. The “Proliferative disease and location thereof” value in data set [2] is reported as “pancreas, adenocarcinoma, ovary, mucinous; cystadenocarcinoma”.
Regarding “273 (EVAKFLSFY; listed as Homo sapiens) [compound 273]”, in data set [1] (HLA ligand (LiTAP)), the “Number of positive AMLs” value is given as 2. In data set [2], the “Proliferative disease and location thereof” value is recorded as “kidney, clear cell renal cell carcinoma, kidney, angiomyolipoma”.
Regarding “274 (KLDQKLPEL; listed as Homo sapiens) [compound 274]”, the “Number of positive AMLs” value in data set [1] (HLA ligand (LiTAP)) amounted to 1. Further, the “Proliferative disease and location thereof” value in data set [2] is listed as “kidney, clear cell renal cell carcinoma, kidney, angiomyolipoma”.
Turning to “275 (SVFEKSVGY; listed as Homo sapiens) [compound 275]”, the “Number of positive AMLs” value in data set [1] (HLA ligand (LiTAP)) came out at 1. Moreover, the “Proliferative disease and location thereof” value in data set [2] was “kidney, clear cell renal cell carcinoma, kidney, angiomyolipoma”.
For the substance “276 (NEGQTALHY; listed as Homo sapiens) [compound 276]”, the “Number of positive AMLs” value in data set [1] (HLA ligand (LiTAP)) was 1. Moreover, the “Proliferative disease and location thereof” value in data set [2] is given as “colon or rectum, endometrium, Mullerian mixed; tumor”.
Consider “277 (VEFPHSPEI; listed as Homo sapiens) [compound 277]”, for which the “Number of positive AMLs” value in data set [1] (HLA ligand (LiTAP)) amounted to 2. The “Proliferative disease and location thereof” value in data set [2] is “colon or rectum, endometrium, Mullerian mixed; tumor”.
“278 (RLQGELQAV; listed as Homo sapiens) [compound 278]”: the “Number of positive AMLs” value in data set [1] (HLA ligand (LiTAP)) is on record as 3. Besides, the “Proliferative disease and location thereof” value in data set [2] was “kidney, clear cell renal cell carcinoma, kidney, renal cell carcinoma”.
Take “279 (KELRELLSI; listed as Homo sapiens) [compound 279]”: the “Number of positive AMLs” value in data set [1] (HLA ligand (LiTAP)) came to 1. Besides, in data set [2], the “Proliferative disease and location thereof” value is reported as “colon or rectum, fibromatosis”.
